Source: article PMC6952816
For at least one entry, the source does not settle the construct or the ends of the probe. For some assays here: No signal at the amounts used counts as a negative. Where a protein sequence is shown, tags need not be part of it.

How the values were obtained:
[1] = target: T1, WRKY33 (Arabidopsis thaliana) (UniProt Q8S8P5); test: EMSA; details: pH and temperature not given; recombinant protein; label: 5'-32P; probe letters rebuilt from the primers and the genome
T1 sequence (looked up, limits assumed): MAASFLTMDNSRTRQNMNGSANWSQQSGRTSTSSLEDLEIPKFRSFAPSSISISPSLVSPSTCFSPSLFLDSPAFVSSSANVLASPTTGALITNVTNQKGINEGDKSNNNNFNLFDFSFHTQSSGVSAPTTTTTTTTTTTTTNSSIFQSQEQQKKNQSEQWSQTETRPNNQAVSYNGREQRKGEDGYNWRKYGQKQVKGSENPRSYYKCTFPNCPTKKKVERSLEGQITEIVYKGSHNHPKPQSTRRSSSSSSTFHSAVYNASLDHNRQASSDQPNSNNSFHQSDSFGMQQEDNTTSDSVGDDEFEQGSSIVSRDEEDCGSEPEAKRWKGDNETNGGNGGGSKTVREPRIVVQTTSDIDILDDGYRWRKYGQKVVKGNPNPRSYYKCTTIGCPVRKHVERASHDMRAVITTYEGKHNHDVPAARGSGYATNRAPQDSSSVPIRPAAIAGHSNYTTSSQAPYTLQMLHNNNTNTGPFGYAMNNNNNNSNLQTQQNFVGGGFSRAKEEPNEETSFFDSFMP

[2] = target: T2, WRKY53 (Arabidopsis thaliana) (UniProt Q9SUP6); test: EMSA; details: pH and temperature not given; recombinant protein; label: 5'-32P; probe letters rebuilt from the primers and the genome
T2 sequence (looked up, limits assumed): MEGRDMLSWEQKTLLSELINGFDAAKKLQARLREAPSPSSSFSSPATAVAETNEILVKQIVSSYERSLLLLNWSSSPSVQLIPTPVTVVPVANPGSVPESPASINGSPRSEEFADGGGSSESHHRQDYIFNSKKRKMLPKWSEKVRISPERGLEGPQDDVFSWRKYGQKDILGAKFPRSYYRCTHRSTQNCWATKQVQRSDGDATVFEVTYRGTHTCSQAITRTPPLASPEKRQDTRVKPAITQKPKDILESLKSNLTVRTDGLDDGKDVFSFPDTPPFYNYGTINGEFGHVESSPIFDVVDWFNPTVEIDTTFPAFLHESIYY

GGTAACCCAAGTATTTTTCATAGATATTATACTTCTAGCGAAAAGCCATCAATTGAGAAAAAAGGCCTCCACGTTTGACCCGTTTTGCCTATAAAAGGATTCTTTAAGATATGGACCTTACTCATCTTCTCCGTTAAACCCATTTAAATAGTTTTCATTGTCCTTGTGA (double strand) [PRX33 promoter fragment]
binding result [1]: no binding
binding result [2]: binds
